# Assay results taken from PubChem BioAssay AID1347141 (National Center for Advancing Translational Sciences (NCATS), 2019).
# The shares of active, inactive and inconclusive entries below differ from those in the screen. The call rests on the fitted dose curve; in most records, active means well fitted inhibition curve with a large enough effect; inconclusive means small, poorly fitted or top-dose-only effect; inactive means flat fitted curve, though single readings scatter. Potencies of inconclusive entries are doubtful fits and often do not repeat.
# Experiment: qHTS of pediatric cancer cell lines to identify multiple opportunities for drug repurposing: Orthogonal 3D viability screen for RD cells
# Settings: RD rhabdomyosarcoma 3D spheroid viability, PI/Hoechst imaging, 72 h
# From the text: Drug repurposing or repositioning has been offered as a strategy for drug development in oncology programs. This approach has special potential for childhood cancers and other rare or orphan diseases, where the expected return on new drug development has been a disincentive to pharmaceuticals. […] In this project we exploit the poly-pharmacology of drugs to discover new indications via phenotypic screening of a panel of 19 well-characterized cell lines derived from solid tumors seen in children and adolescents. The goal is to identify approved drugs with previously unrecognized anticancer properties that has the potential to reveal new mechanisms and biological processes involved in carcinogenesis or drug resistance. We employed a titration-based paradigm (quantitative high-throughput screening or qHTS), where all compounds were tested at multiple concentrations for their effect on cell viability. […] Assay Submitter: Nathalia J. Martinez, National Center for Advancing Translational Sciences, National Institutes of Health, Rockville, MD, USA; email: natalia.martinez@nih.gov Shen, M et al. Quantitative high-throughput phenotypic screening of pediatric cancer cell lines identifies multiple opportunities for drug repurposing. […]
row,SMILES,Potency
1,O=c1[nH]c2ccc(Cl)cc2c(N[C@@H]2CN3CCC2CC3)c1-c1nc2ccccc2[nH]1,"inconclusive: 22.8 µM [inhibitor, single point]"
2,C[C@@H]1C[C@@H]([C@H](O)CC2CC(=O)NC(=O)C2)C(=O)[C@@H](C)C1,"inconclusive: 0.909 µM [inhibitor, full curve]"
